This assay addresses Flag-WSNM2 (influenza A virus A/WSN/33 (H1N1)) (UniProt P05780). The assay is described as follows: co-IP.

Chains of the proteins cited; added tags and fusions are not shown. Lines headed by an entry give the natural chain unless they say otherwise; changes in a name come on top. A line that says so, or that is headed by a name, gives the form on record, which may keep a tag or linker.
UniProt P05780: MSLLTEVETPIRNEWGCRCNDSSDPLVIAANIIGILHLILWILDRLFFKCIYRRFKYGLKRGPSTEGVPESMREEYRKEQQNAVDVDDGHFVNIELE
TRAPPC6A-Myc (O75865-2, form named): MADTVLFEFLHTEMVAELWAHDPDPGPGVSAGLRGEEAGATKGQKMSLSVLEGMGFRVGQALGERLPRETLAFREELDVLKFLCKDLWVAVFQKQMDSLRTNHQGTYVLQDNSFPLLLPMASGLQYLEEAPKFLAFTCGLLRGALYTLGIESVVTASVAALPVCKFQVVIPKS

These results are taken from publication PMC5165196.

These are yes or no findings as the source states them, for the method shown. In cells and extracts the contact can be indirect. Some entries that bind do so weakly or less than the wild type.

Turning to “TRAPPC6A-Myc (from UniProt O75865-2 1-173)”, the binding entry is “binds”.
